Data on 4 molecules can be found in article PMC4947123.

Chains of the proteins cited; added tags and fusions are not shown. Lines headed by an entry give the natural chain unless they say otherwise; changes in a name come on top.
UniProt P35637: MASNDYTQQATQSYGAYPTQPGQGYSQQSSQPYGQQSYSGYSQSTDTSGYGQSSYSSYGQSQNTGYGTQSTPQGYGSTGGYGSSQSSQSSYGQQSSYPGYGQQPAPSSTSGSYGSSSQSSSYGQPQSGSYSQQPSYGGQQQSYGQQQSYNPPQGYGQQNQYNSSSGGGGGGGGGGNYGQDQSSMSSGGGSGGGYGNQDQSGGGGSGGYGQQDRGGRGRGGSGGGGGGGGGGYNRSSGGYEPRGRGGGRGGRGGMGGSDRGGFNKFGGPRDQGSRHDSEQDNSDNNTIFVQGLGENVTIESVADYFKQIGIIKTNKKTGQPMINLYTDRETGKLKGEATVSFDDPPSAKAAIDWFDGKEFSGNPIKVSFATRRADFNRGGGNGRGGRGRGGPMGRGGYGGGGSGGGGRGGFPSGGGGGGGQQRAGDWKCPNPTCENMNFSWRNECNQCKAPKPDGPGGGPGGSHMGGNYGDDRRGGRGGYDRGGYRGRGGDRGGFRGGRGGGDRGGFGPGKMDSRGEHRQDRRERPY
UniProt Q96CV9: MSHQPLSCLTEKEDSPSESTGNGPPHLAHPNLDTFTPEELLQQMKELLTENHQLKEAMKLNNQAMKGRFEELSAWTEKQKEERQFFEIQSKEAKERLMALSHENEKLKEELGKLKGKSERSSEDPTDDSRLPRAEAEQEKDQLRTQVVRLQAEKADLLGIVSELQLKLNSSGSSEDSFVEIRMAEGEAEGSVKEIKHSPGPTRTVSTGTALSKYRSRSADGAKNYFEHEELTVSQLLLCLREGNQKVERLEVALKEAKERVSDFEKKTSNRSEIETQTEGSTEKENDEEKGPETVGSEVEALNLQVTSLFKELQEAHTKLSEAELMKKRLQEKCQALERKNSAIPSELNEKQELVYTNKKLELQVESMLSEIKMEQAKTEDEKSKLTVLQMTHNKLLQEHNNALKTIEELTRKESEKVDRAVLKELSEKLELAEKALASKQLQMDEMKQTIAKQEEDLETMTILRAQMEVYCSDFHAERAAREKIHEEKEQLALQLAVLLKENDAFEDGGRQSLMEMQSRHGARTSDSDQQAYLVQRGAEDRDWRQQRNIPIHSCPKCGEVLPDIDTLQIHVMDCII

The target of test [1] is bioGFP-tagged FUS wild-type (human) (UniProt P35637). The test is described as follows: affinity purification with mass spectrometry; bioGFP-tagged bait co-transfected with BirA in N2A cells; captured from lysate with magnetic streptavidin beads; gel, LC-MS/MS, MaxQuant, PERSEUS, Welch's t test with FDR 0.01 and S0 1.5, triplicate, against GFP or wild type.
Test [2] has as its target bioGFP-tagged TDP-43 wild-type (UniProt Q13148). Described as above.
Test [3] concerns the target bioGFP-tagged TDP-43 M337V (UniProt Q13148). The test is described as above.
Test [4] has as its target bioGFP-tagged FUS R521C (human) (UniProt P35637). Described as above.
Test [5] addresses bioGFP-tagged OPTN wild-type (UniProt Q96CV9). The test is described as follows: affinity purification with mass spectrometry.

These are yes or no findings as the source states them, for the method shown. Binding seen in cells or lysates may run through a third protein. Here binding means that the protein was enriched with, or labelled near, the bait; the list need not be complete.

B1: Caprin1 (protein, UniProt Q60865 1-707)
chain: MPSATSHSGSGSKSSGPPPPSGSSGSEAAAGAAAPASQHPATGTGAVQTEAMKQILGVIDKKLRNLEKKKGKLDDYQERMNKGERLNQDQLDAVSKYQEVTNNLEFAKELQRSFMALSQDIQKTIKKTARREQLMREEAEQKRLKTVLELQYVLDKLGDDDVRTDLKQGLSGVPILSEEELSLLDEFYKLVDPERDMSLRLNEQYEHASIHLWDLLEGKEKPVCGTTYKALKEIVERVFQSNYFDSTHNHQNGLCEEEEAASAPTVEDQVAEAEPEPAEEYTEQSEVESTEYVNRQFMAETQFSSGEKEQVDEWTVETVEVVNSLQQQPQAASPSVPEPHSLTPVAQSDPLVRRQRVQDLMAQMQGPYNFIQDSMLDFENQTLDPAIVSAQPMNPTQNMDMPQLVCPQVHSESRLAQSNQVPVQPEATQVPLVSSTSEGYTASQPLYQPSHATEQRPQKEPMDQIQATISLNTDQTTASSSLPAASQPQVFQAGTSKPLHSSGINVNAAPFQSMQTVFNMNAPVPPANEPETLKQQSQYQATYNQSFSSQPHQVEQTELQQDQLQTVVGTYHGSQDQPHQVPGNHQQPPQQNTGFPRSSQPYYNSRGVSRGGSRGARGLMNGYRGPANGFRGGYDGYRPSFSNTPNSGYSQSQFTAPRDYSGYQRDGYQQNFKRGSGQSGPRGAPRGRGGPPRPNRGMPQMNTQQVN
Regarding B1, the binding result in test [1], in test [2], in test [3] and in test [4] was “binds” each time.

B2: hnRNPQ (Syncrip) (protein, UniProt Q7TMK9 1-623)
chain: MATEHVNGNGTEEPMDTTSAVIHSENFQTLLDAGLPQKVAEKLDEIYVAGLVAHSDLDERAIEALKEFNEDGALAVLQQFKDSDLSHVQNKSAFLCGVMKTYRQREKQGTKVADSSKGPDEAKIKALLERTGYTLDVTTGQRKYGGPPPDSVYSGQQPSVGTEIFVGKIPRDLFEDELVPLFEKAGPIWDLRLMMDPLTGLNRGYAFVTFCTKEAAQEAVKLYNNHEIRSGKHIGVCISVANNRLFVGSIPKSKTKEQILEEFSKVTEGLTDVILYHQPDDKKKNRGFCFLEYEDHKTAAQARRRLMSGKVKVWGNVGTVEWADPIEDPDPEVMAKVKVLFVRNLANTVTEEILEKSFSQFGKLERVKKLKDYAFIHFDERDGAVKAMEEMNGKDLEGENIEIVFAKPPDQKRKERKAQRQAAKNQMYDDYYYYGPPHMPPPTRGRGRGGRGGYGYPPDYYGYEDYYDYYGYDYHNYRGGYEDPYYGYEDFQVGARGRGGRGARGAAPSRGRGAAPPRGRAGYSQRGGPGSARGVRGARGGAQQQRGRGVRGARGGRGGNVGGKRKADGYNQPDTKRRQTNNQNWGSQPIAQQPLQGGDHSGNYGYKSENQEFYQDTFGQQWK
For the molecule B2, the binding entry in test [2] and in test [3] was “binds” throughout.

B3: DNA ligase 3 (Lig3) (protein, UniProt P97386 1-1015)
chain: MTLAFKILFPRNLCALGRKELCLFPEQNRWAAISQFSQWSETNLLGGCCLLQRRKPVLALQRGHLRPRATHLTFWPGSHVGLCTGPCAMAEQRFCVDYAKRGTAGCKKCKEKIVKGVCRIGKVVPNPFSESGGDMKEWYHIKCMFEKLERARATTKKIEDLTELEGWEELEDNEKEQISQHIADLSSKAAATPKKKAAVQAKLTTTGQVTSPVKGASFITSTNPRKFSGFSAAKPNNSEQAPSSPAPGTSLSASKCDPKHKDCLLREFRKLCAMVAENPSYNTKTQIIHDFLQKGSTGGFSDGFHGDVYLTVKLLLPGVIKSVYNLNDKQIVKLFSRIFNCNPDDMARDLEQGDVSETIRIFFEQSKSFPPAAKSLLTIQEVDAFLLHLSKLTKEDEQQQALQDIASRCTANDLKCIIRLIKHDLKMNSGAKHVLDALDPNAYEAFKASRNLQDVVERVLHNEQEVEKDPGRRRALRVQASLMTPVQPMLAEACKSIEYAMKKCPNGMFSEIKYDGERVQVHKKGDHFSYFSRSLKPVLPHKVAHFKDYIPKAFPGGQSMILDSEVLLIDNNTGKPLPFGTLGVHKKAAFQDANVCLFVFDCIYFNDVSLMDRPLCERRKFLHDNMVEIRNRIMFSEMKQVTKASDLADMINRVIREGLEGLVLKDVKGTYEPGKRHWLKVKKDYLNEGAMADTADLVVLGAFYGQGSKGGMMSIFLMGCYDPDSQKWCTVTKCAGGHDDATLARLQKELVMVKISKDPSKIPSWLKINKIYYPDFIVPDPKKAAVWEITGAEFSRSEAHTADGISIRFPRCTRIRDDKDWKSATNLPQLKELYQLSKDKADFAVVAGDEASPTTGGSSGENEGTAGSAGPCKGPPSKSSASAKTTEQKLNSPSSRGGIKPIPKHSPMKPGEKLAVKSSPVKVGMKRKATDETPCLKKVLLDVFTGVRLYLPPSTPDFKRLKRYFVAFDGDLVQEFDMGSATHVLGNREKNTDAQLVSSEWIWACIRKRRLIAPC
In the case of B3, the binding entry in test [1] and in test [4] was “binds” throughout.

B4: IgE-binding protein (Iap) (protein, UniProt P03975 1-557)
chain: MALQVMFGLEFFLVLEALLFLFTCYQVVKAGRILDEIQDKLSEVKRGERVGTKRKYGTQNKYTGLSKGLEPEEKLRLGRNTWREIRRKRGKREKKKDQLAEVSRKRSLCSSLDGLGKPALSSSEAGEESSSEETDWEEEAAHYQPANWSRKKPKAAGEGQFADWPQGSRLQGPPYAESPPCVVRQQCAERCAERQCAERQCADSFIPREEQRKIQQAFPVFEGAEGGRVHAPVEYLQIKEIAESVRKYGTNANFTLVQLDRLAGMALTPADWQTVVKAALPSMGKYMEWRALWHEAAQAQARANAAALTPEQRDWTFDLLTGQGAYSADQTNYHWGAYAQISSTAIRPGRRSRAGETTGQLTKIIQGPQESFSDFVARMTEAAERIFGESEQAAPLIEQLIYEQATKECRAVHSPKKEQRLTRLAQGLSRAWGKPRLLKTDNGPAYTSQKFQQFCRQMDVTHLTGLPYNPQGQGIVERAHRTLKAYLIKQKRGTFEETVPRAPRVSVSLALFTLNFLNIDAHGHTAAERHVQSQIGPMRWLNGKMSLIINGMARILS
Consider B4, for which, in test [5], the binding entry was “binds”.
